This is an account of results in publication doi:10.1101/2023.12.26.573381.

Sequences of proteins named here, by UniProt entry; tags and fusion partners are left off. Residues count along the entry.
UniProt Q9H0K1: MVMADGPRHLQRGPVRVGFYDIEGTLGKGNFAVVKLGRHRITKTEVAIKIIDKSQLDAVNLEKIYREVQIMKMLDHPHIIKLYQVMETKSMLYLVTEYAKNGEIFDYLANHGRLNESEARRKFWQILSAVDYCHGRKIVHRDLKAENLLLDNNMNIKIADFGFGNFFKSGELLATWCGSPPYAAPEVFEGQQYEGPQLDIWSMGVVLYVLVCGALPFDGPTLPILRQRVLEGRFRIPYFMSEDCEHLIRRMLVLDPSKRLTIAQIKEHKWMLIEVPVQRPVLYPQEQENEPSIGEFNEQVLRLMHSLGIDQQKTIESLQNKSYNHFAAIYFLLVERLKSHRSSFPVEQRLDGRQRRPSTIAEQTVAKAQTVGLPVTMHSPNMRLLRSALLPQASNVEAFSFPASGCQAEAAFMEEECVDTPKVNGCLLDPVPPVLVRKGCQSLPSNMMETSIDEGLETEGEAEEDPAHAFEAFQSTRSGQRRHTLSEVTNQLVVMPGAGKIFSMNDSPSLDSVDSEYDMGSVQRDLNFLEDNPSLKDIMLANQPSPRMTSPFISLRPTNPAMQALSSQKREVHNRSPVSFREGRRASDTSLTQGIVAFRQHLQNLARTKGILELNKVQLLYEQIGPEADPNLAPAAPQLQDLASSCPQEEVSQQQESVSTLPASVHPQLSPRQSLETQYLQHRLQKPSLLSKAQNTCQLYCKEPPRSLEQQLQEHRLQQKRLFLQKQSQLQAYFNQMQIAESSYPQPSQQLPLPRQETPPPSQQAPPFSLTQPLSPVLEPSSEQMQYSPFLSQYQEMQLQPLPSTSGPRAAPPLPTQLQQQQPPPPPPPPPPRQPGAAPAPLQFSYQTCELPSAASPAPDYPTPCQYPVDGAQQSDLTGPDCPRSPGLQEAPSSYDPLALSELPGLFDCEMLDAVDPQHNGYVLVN
UniProt P21802, residues 22-821: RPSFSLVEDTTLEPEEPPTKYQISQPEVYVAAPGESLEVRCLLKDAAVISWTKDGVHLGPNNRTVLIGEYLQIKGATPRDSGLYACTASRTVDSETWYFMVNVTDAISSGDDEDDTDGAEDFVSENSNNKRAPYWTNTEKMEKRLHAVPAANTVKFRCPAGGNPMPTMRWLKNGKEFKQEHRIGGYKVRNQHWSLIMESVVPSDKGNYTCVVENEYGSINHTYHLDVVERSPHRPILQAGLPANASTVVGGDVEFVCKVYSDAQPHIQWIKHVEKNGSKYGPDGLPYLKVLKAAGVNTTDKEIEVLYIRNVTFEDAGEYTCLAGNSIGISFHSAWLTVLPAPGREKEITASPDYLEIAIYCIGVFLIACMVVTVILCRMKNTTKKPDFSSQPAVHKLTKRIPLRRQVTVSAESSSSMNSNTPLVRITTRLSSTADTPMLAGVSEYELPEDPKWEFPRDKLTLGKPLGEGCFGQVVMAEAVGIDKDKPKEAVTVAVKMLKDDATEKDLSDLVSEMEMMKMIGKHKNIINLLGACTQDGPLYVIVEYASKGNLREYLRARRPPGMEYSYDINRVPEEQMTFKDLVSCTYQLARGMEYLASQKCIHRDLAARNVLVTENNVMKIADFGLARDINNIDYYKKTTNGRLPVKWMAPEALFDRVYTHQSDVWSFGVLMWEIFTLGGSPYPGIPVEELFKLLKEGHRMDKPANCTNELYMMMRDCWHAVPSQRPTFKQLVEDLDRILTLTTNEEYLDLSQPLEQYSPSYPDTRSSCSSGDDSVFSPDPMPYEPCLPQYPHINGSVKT
UniProt P62993: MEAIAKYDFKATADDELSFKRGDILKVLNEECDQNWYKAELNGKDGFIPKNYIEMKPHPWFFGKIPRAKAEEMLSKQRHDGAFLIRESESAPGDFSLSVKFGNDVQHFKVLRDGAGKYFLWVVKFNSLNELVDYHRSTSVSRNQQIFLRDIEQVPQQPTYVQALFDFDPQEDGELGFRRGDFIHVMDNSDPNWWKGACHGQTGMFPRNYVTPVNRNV

Experiment in all cases: co-IP
Assay [1] addresses Salt Inducible Kinase 2 (SIK2), endogenous in MIO-M1 cells (human (endogenous in MIO-M1)) (UniProt Q9H0K1).
Assay [2] deals with T1, Gab1 docking protein, endogenous in MIO-M1 cells (human (endogenous in MIO-M1)) (UniProt Q13480).
T1 sequence: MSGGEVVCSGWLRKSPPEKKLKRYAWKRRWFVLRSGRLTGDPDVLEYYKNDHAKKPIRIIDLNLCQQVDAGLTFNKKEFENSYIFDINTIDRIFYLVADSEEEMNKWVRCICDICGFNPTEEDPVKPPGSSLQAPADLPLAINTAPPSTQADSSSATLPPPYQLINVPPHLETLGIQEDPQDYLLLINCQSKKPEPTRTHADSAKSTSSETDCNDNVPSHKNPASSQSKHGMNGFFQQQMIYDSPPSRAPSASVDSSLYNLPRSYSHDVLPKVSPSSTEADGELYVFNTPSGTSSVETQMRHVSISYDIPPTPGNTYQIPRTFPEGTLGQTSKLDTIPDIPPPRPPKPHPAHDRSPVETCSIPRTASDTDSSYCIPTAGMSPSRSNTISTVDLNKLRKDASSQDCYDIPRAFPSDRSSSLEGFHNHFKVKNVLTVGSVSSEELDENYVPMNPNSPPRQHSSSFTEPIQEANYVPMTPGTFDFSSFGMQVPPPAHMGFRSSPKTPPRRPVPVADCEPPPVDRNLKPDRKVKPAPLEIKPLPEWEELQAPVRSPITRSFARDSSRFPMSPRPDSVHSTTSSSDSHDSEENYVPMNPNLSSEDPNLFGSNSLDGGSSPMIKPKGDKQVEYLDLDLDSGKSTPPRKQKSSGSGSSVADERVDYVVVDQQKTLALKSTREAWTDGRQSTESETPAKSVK

Assay [3] deals with T2, c-Myc tagged human Gab1 S266A (human) (UniProt Q13480).
T2 sequence: T1 sequence with S266A

Assay [4] concerns the target Salt Inducible Kinase 2 (SIK2), endogenous in MIO-M1 cells (human (endogenous in MIO-M1)) (UniProt Q9H0K1). This is another data set of the same source.

Numbering of substitutions follows the chain as printed. Like-named read-outs stand apart in the source and are kept apart here. No constants are given. Whether binding was seen depends on the method and setting. In cells and extracts the contact can be indirect. Some entries that bind do so weakly or less than the wild type. For some assays here: Sequences can lack the tags named with a protein.

Take “FGFR2, endogenous in MIO-M1 cells (from UniProt P21802 22-821) (receptor)”: in assay [1], the binding result is on record as “binds”.
Turning to “Grb2, endogenous in MIO-M1 cells (from UniProt P62993 1-217)”, the binding result in assay [2] and in assay [3] was “binds” throughout.
Regarding “Salt Inducible Kinase 2 (SIK2), endogenous in MIO-M1 cells (from UniProt Q9H0K1 1-926)”, the binding result in assay [2] is reported as “binds”.

B1: Gab1 docking protein, endogenous in MIO-M1 cells (protein, UniProt Q13480 1-694)
chain: T1 sequence
Consider B1, for which the binding entry in assay [4] is listed as “binds”.
